Assay results from paper PMC12242767.
These are yes or no findings as the source states them, for the method shown. Binding seen in cells or lysates may run through a third protein. A yes stands for co-enrichment or nearness to the bait. Other partners may have been found. For part of these data: Where a sequence is shown, tags or fusion partners need not be part of it. Values belong to the binder of their own block, whether it stands above or below them.

Assays:
[1] = target: T1, Mrx4-GFP-ALFA (S. cerevisiae) (UniProt Q12467); test: cross-linking + affinity purification with mass spectrometry; ALFA-XLP of Mrx4-GFP-ALFA: isolated mitochondria treated with the crosslinker MBS, compared to DMSO; also WT compared to the cob::ARG8 background; lysis with 8 M urea, ALFA selector beads, washes with SDS and 6 M urea
T1 sequence: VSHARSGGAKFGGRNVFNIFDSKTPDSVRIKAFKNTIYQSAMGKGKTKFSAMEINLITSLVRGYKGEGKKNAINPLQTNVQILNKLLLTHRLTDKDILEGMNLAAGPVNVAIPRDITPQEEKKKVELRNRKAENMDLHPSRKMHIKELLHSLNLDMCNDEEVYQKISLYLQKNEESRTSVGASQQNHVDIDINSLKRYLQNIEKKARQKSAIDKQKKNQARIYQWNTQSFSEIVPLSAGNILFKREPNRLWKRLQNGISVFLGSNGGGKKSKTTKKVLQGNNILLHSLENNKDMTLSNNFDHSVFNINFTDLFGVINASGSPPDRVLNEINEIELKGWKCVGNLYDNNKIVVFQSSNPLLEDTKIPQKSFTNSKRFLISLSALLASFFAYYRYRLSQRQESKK

[2] = target: T2, Cbp3-BirA* (S. cerevisiae) (UniProt P21560); test: proximity labelling; Bio-ID: C-terminal BirA* fusions in yeast grown overnight in YPG or YPGal with 50 μM biotin; mitochondria lysed in 1% SDS, streptavidin beads, mass spectrometry; compared to a Kgd4-BirA* control, or WT compared to mrx4Δ
T2 sequence: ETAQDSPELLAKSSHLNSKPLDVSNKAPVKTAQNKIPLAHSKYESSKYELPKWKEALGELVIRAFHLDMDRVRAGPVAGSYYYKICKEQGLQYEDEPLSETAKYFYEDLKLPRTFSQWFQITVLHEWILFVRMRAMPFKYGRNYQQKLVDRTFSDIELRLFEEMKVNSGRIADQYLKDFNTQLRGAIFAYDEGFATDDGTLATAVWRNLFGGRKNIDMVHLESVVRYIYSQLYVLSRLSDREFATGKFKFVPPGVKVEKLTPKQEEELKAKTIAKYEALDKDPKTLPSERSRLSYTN

[3] = target: T3, Cbs2-BirA* (S. cerevisiae) (UniProt P14905); test: as above
T3 sequence: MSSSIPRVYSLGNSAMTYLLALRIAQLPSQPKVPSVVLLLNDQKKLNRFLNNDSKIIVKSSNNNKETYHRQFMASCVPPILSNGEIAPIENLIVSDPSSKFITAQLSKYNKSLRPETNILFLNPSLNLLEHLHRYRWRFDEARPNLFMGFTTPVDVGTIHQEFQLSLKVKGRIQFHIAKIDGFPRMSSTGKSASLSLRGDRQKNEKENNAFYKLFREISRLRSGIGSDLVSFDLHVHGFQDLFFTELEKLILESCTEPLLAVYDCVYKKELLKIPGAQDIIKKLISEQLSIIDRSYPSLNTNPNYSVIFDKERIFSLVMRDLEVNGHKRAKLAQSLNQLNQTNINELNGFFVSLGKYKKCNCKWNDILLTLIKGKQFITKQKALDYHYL

[4] = target: T4, Cbp3-ALFA (S. cerevisiae) (UniProt P21560); test: cross-linking + affinity purification with mass spectrometry; ALFA-XLP of Cbp3-ALFA: isolated mitochondria treated with 200 μM MBS or BMOE, 30 min 30°C; lysis with 8 M urea, ALFA selector beads, washes with SDS and 6 M urea; compared to a control without crosslinking
T4 sequence: T2 sequence

binding [1]: binds
B1: Cbs2 (protein, UniProt P14905 1-389)
chain: T3 sequence

binding [2]: binds
binding [3]: binds
binding [4]: binds
B3: Mrx4 (protein, UniProt Q12467 28-430)
chain: T1 sequence

binding [1]: binds
B5: Cbp3 (protein, UniProt P21560 39-335)
chain: T2 sequence

More lines, now with the values behind:

B2: Bca1 (protein, UniProt Q08023 26-583)
chain: AKQPQYDEAELFAENINHGAYKAKKRPSDEHFQWPEKSPDQITKESELQWERMAKLSAVGQGILILVVVGGLGTAYLRWPELKSWWLIKMNGGRINATQEQSGQDSLEKLIRQKAKNLLREIPQVPAFQLGIDHPGVYIWGRCHSKDSLFPVRVPNLDGRKFRDILLAPSDDFNTNFAIDEKGDLISWDDLGQTKTILPDQDLTSMKYSSHFLYALNKKGEILVIPIRTPDLIASQVSSRRSKLLPWKTKLRYDWKLQTNQIFNGKEGEKRVVQFDAGSHHLVLLSNLGKAYCCATGNDQKQAQVSKGQFGIPTFSQFDEFPPNNQLFEIELLNKFKHEGEDVVRKREIKKIACGSYHTLAIDKTGEIYAFGWNRFGQLALPISYNLEYVSFPRSVTHAFKPHFPGMTNWKCVDIHCDDETSFVTIRKPGSTSDHHYFAFGNGLFGELGNNTFKNSQCDPIKIKSDDKKLTNWSCGSHCVFTETEQENEVIAWGNNDHGQLGIGKKTMKCAKPMNIPEVLKPGQDTTDLDSIYNSKLHLKKEQRVVTNGNKSCLYWRV
binding [2]: binds
binding [1]: binds

B4: Mdm38 (protein, UniProt Q08179 57-573)
chain: STDKSKSVTKPVAPTSTDAPAKPKETLMVKVKHALKHYANGTKLLGYEIKVSTKLLIKFAQGYELSRRERNQLRRTMGDVFRLIPFSAFLIIPFAELFLPFALKLFPNLLPSTYESGKDKQAKRNKLIEIRKKTSEFLHETLEESNLITYNTIENAEKKQKFLNFFRKLYSAKEGKIMTFQHDEISAIAQMFKNDSVLDNLSRPQLAAMSKFMSLRPFGNDNMLRYQIRSKLKDIMNDDKTIDYEGVESLSQEELYQACVSRGMKAYGVSKEDLVDNLKVWLELRLRQKIPSVLMVLSSTFTFGGLPKENYSKAFSPLAEKKETKSKYDDLLDLYYDGILQVLSSIPDPVYNVAKLDVSESKSSAAETEAEKQVAEKKIKTEEKPEETAIPKEEATAKESVIATTASAVTPKLVVVNEKAETAKTEEISQEKENAEPTDSAEATEAEEKKTSDDNEFKLNVLKEQEELIKKEEEEAKQRASREHVPDDINLDEEEEAKSVPPIPADQAAKTFVIKKD
binding [2]: binds

B6: Sov1 (protein, UniProt Q04748 32-898)
chain: ASHIPEVLNKTIIGPDEPEKCLILKGKTSEEIENNLLSNKKFQEINPLDTIQETFIQYLKFCNETNFKRSNKNLNRLKKTLESKDSNSTVKINAVFNYLLEECDLEIKRLNTTGQTQVYNEEKGNEDDLEQSIMNDIFRSAQEQFEDQEGHIPLRSTSFLLEILKSFNERFNGIIKPKESITEMVTFSQLAQAFEVVKLIPVQEMKEKGIYLVGNLLYGTGKVRLDPINESFYIESLLVFGNYKAAYSLFITNKDKVNERWWNELGLMITLRSNHLRNFRKLLAETDAKYSTKYSYLSPRVTKLSIRKYLSIGNVTEANILTDRFIKLVEEVGIIRMKDEQEELPTGVKNFQNEKHATEFLNELEIPSDHDYISIVDFHLYKRNIPMAAQLISKYMEIPGTTQEDAAFLLVKTKLNMLKDFEKLRNIFAQNKDYVVPENNVKMLQEAFESVITKYNTNSPIYNELLFENVSALTKSIVLTDFLEEFITKQASGQWMELNSVSRSRKFNGLLNILLGTGEEEKAYNILKKLEEASKKSKTDPDLLYNQFYSEVNAYHYAKFVEFYSLQIQNMKAQNTPSFRKKEFKQKVKSLLKRMQESEVIPNAVFLREILNFYDSMYDFNSSFEIINPLLESKQQVSSESSLSTSNPCRFYNRRIITKPLYHKIWSVYCHYYHVLQNNSRILSKKSSIVKKLIKRQIKIHPTCHPRVLFQMTAENGEILPDKTFSKLIVSTFMKSGDLEAIPAILTFLTKKFDLNIDYDLSMYILKGLKRQYLRDISNISKDACEYKLRKAELMNNESILKNIPQGTNQENTISHLIREILIFIKWKEKSDCSTFLMVEDAFKELGTEFTLLEELIEDVNKLKIKA
binding [3]: binds

B7: Cbp6 (protein, UniProt P07253 1-162)
chain: MSSSQVVRDSAKKLVNLLEKYPKDRIHHLVSFRDVQIARFRRVAGLPNVDDKGKSIKEKKPSLDEIKSIINRTSGPLGLNKEMLTKIQNKMVDEKFTEESINEQIRALSTIMNNKFRNYYDIGDKLYKPAGNPQYYQRLINAVDGKKKESLFTAMRTVLFGK
binding [2]: binds
binding [4]: binds
binding [1]: binds
